Measurements: publication PMC10584915
These are yes or no findings as the source states them, for the method shown. Binding seen in cells or lysates may run through a third protein. Some binding calls cover weakened binding; strength is not graded here.

Sequences of proteins named here, by UniProt entry; tags and fusion partners are left off. A change or cut given only in a name is not applied to a line headed by its entry.
UniProt Q16637: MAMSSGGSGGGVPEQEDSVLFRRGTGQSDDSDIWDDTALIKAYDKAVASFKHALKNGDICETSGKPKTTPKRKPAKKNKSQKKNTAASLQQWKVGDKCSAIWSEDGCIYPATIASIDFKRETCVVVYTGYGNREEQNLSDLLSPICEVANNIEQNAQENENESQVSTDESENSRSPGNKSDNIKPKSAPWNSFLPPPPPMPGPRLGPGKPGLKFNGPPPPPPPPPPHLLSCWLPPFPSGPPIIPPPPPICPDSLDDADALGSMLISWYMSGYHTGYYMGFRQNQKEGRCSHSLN
UniProt Q9UHI6: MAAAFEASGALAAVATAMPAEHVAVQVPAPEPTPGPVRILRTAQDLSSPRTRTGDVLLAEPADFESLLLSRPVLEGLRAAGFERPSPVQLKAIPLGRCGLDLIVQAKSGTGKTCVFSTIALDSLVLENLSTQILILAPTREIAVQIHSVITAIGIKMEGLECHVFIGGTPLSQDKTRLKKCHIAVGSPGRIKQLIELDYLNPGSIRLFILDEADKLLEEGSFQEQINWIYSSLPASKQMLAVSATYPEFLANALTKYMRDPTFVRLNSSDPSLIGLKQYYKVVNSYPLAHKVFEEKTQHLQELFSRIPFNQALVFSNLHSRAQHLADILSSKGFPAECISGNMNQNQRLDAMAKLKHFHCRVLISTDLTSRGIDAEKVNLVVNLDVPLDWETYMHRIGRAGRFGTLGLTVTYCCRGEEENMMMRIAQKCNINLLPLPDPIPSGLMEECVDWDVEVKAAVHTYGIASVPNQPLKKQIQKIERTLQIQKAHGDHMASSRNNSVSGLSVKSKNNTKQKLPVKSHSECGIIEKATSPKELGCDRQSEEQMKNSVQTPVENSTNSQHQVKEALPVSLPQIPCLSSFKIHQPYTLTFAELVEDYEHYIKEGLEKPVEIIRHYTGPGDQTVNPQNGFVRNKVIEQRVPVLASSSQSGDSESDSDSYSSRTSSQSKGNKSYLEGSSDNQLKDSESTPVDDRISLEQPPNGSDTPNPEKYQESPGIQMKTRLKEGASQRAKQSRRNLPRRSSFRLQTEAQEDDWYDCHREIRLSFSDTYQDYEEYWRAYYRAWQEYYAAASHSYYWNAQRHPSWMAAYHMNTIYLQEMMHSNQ
UniProt Q8TEQ6: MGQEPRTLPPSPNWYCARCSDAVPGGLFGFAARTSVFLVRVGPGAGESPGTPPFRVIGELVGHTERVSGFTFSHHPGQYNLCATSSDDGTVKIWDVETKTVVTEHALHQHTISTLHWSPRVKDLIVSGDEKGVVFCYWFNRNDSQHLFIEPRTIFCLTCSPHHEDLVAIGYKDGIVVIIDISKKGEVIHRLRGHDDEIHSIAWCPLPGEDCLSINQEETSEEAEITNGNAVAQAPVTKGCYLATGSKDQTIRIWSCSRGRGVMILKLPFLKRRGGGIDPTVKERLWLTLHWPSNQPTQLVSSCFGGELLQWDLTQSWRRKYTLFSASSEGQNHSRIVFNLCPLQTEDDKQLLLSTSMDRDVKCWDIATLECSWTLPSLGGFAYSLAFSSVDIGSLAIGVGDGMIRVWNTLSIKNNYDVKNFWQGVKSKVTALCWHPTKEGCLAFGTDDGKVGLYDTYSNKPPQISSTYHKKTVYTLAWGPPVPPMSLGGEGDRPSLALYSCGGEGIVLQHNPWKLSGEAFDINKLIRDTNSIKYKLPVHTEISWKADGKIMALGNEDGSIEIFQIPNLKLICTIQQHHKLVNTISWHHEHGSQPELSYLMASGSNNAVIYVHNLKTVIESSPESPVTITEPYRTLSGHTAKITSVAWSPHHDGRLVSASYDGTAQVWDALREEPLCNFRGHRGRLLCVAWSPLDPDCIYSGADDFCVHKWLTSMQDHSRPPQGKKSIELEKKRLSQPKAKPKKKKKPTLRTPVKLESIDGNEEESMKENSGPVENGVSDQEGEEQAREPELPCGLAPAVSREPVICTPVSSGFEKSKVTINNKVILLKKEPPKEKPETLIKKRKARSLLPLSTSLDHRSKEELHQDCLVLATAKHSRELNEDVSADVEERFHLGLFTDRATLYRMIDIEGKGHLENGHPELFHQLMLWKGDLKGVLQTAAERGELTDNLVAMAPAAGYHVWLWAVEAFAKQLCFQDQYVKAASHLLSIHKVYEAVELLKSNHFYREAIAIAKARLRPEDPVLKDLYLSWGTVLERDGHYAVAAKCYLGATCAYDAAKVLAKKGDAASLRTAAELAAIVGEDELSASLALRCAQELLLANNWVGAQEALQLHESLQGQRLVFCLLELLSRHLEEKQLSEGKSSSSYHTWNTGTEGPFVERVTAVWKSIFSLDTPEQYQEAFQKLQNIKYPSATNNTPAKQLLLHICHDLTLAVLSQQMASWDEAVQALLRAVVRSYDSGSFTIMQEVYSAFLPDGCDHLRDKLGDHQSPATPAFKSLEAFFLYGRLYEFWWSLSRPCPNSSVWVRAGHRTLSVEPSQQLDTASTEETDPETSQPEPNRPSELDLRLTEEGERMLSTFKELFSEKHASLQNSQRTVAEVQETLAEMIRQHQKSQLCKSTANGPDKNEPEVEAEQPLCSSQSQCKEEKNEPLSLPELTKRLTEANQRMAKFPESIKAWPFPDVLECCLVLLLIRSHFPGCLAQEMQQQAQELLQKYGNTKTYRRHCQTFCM

Molecular target: SMN (human (endogenous in HeLa)) (UniProt Q16637)
Assay: co-IP; SMN complex precipitated from cell lysate (1xPBS, 0.01% NP-40, 2.5 mM MgCl2) with anti-SMN antibody 7B10 covalently coupled to ProteinG-Sepharose, 3 h at 4 °C; beads analysed by SDS-PAGE with Coomassie staining or western blotting; cells mock treated or treated with dTAG13 (0.5 uM, 72 h) to degrade Gemin3

binding	Substance
binds	Gemin3-GFP-FKBP12^F36V protein (from UniProt Q9UHI6 1-824)
binds	Gemin5 (from UniProt Q8TEQ6 1-1508)
